This passage reports binding results from PMC11953741.

This assay deals with T1, Dsn1-6His-3Flag (S. cerevisiae) (UniProt P40568).
T1 sequence: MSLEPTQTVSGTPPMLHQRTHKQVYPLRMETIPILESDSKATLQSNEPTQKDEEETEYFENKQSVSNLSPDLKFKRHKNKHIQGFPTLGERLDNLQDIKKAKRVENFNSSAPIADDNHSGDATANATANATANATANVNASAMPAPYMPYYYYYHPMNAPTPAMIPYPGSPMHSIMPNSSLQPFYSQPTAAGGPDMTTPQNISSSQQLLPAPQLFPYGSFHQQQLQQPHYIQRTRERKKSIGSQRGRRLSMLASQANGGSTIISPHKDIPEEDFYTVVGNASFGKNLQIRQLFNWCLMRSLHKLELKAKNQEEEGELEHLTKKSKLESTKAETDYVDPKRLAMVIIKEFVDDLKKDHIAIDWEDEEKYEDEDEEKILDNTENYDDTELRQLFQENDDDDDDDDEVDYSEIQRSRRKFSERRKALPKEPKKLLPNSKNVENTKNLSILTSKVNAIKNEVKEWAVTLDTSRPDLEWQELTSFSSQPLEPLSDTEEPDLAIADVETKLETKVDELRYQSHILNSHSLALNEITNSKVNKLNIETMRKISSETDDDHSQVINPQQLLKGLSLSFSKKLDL
Kind of assay: affinity purification with mass spectrometry; Flag immunoprecipitation of Dsn1-His-Flag from yeast extracts of NUF2-V5 and nuf2^Q21A-V5 strains, eluted in 0.2% RapiGest, trypsin digest, LC-MS/MS.

No constants are given. Whether binding was seen depends on the method and setting. Binding seen in cells or lysates may run through a third protein. Here binding means that the protein was enriched with, or labelled near, the bait; the list need not be complete. Sequences can lack the tags named with a protein.

B1: Mps1 kinase (enzyme, UniProt P54199 1-764)
chain: MSTNSFHDYVDLKSRTNTRQFSDDEEFTTPPKLSNFGSALLSHTEKTSASEILSSHNNDKIANRLEEMDRSSSRSHPPPSMGNLTSGHTSTSSHSTLFGRYLRNNHQTSMTTMNTSDIEINVGNSLDKSFERIRNLRQNMKEDITAKYAERRSKRFLISNRTTKLGPAKRAMTLTNIFDEDVPNSPNQPINARETVELPLEDSHQTNFKETKRNTDYDSIDFGDLNPIQYIKKHNLPTSDLPLISQIYFDKQREENRQAALRKHSSRELLYKSRSSSSSLSSNNLLANKDNSITSNNGSQPRRKVSTGSSSSKSSIEIRRALKENIDTSNNSNFNSPIHKIYKGISRNKDSDSEKREVLRNISINANHADNLLQQENKRLKRSLDDAITNENINSKNLEVFYHRPAPKPPVTKKVEIVEPAKSASLSNNRNIITVNDSQYEKIELLGRGGSSRVYKVKGSGNRVYALKRVSFDAFDDSSIDGFKGEIELLEKLKDQKRVIQLLDYEMGDGLLYLIMECGDHDLSQILNQRSGMPLDFNFVRFYTKEMLLCIKVVHDAGIVHSDLKPANFVLVKGILKIIDFGIANAVPEHTVNIYRETQIGTPNYMAPEALVAMNYTQNSENQHEGNKWKVGRPSDMWSCGCIIYQMIYGKPPYGSFQGQNRLLAIMNPDVKIPFPEHTSNNEKIPKSAIELMKACLYRNPDKRWTVDKVLSSTFLQPFMISGSIMEDLIRNAVRYGSEKPHISQDDLNDVVDTVLRKFADYKI
Regarding B1, the binding entry is given as “binds”.
